Assay results: the supplement of paper PMC12009310
Counter-ions that a name gives are not always drawn. ± gives the standard deviation of the averaged measurements. The list shows a part of the results. Plates or batches differ in their baseline, so values are only roughly comparable.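 The cells are a mouse kidney inner medullary collecting duct line, silenced either for the ciliary gene Rpgrip1l or with a non-targeting control siRNA.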

Tests used:
[1] = test system: mIMCD3; test: robust z score of cell number vs plate controls; higher = more cells (less cytotoxic); conditions: 10 µM, 48 h
[2] = test system: mIMCD3; test: robust z score of cilia incidence (% cells with single cilium) vs plate controls; higher = more ciliated cells; conditions: 10 µM; 48 h; siRNA: siScr
[3] = test system: mIMCD3; test: robust z score of cilia incidence (% cells with single cilium) vs plate controls; higher = more ciliated cells (rescue of cilia loss); conditions: 10 µM; 48 h; siRNA: siRpgrip1l

Row | Structure (SMILES) | robust z score of cell number ([1]; siRNA: siRpgrip1l) | robust z score of cell number ([1]; siRNA: siScr) | robust z score of cilia incidence [2] | robust z score of cilia incidence [3]
1 | CC1(C(=O)O)NCCc2cc(O)c(O)cc21 (centres undefined) [Salsolinol-1-carboxylic acid] | -8.46 ± 6.3 | -8.57 ± 16 | 0.698 ± 1.9 | -10.2 ± 2.4
2 | O=S(=O)(c1cccc2c(Cl)cccc12)N1CCCNCC1 [ML 9 hydrochloride] | -124 ± 100 | -83 ± 45 | -38.4 ± 1.9 | -47.2 ± 24
3 | CC(C)C[C@@H](C(=O)N[C@H](C(=O)OC1CCCC1)c1ccccc1)[C@H](O)C(=O)NO | -42.5 ± 43 | -26.1 ± 26 | -9.26 ± 5.6 | -12.8 ± 7.7
4 | Cc1ccc(NC2=CC(=O)c3sc(C)nc3C2=O)cc1 [Ryuvidine] | -33.1 ± 11 | -144 ± 110 | -61.5 ± 12 | -55.9 ± 7.3
5 | Cc1cc(NC(=O)Nc2ccc(N(C)C)cc2)c2cc(F)cc(F)c2n1 | -23.3 ± 16 | -26.4 ± 16 | -25.7 ± 21 | -33.3 ± 5.7
6 | O=C(O)CCCc1ccccc1 [sodium 4-Phenylbutyrate] | -8.85 ± 2 | 1.25 ± 2.7 | 0.49 ± 1.9 | -14 ± 6.9
7 | Cl/C(=C\n1cncn1)c1ccc(Cl)cc1Cl [Loreclezole hydrochloride] | -40.4 ± 28 | -3.92 ± 0.84 | 3.62 ± 2.9 | -7.13 ± 4.7
8 | CC1=Nc2ccc(Cl)cc2S(=O)(=O)N1 [Diazoxide] | -4.54 ± 1.8 | -1.85 ± 0.38 | -3.41 ± 2 | -9.17 ± 3.5
9 | CC1(C)C(=O)NC2=C1C(=O)C(=O)c1ccccc12 | -40.8 ± 26 | -54 ± 28 | -30.9 ± 16 | -56.2 ± 8
10 | COc1ccccc1N1CCN(CCN2C(=O)c3ccccc3C(C)(C)C2=O)CC1 [ARC 239 dihydrochloride] | -4.99 ± 1.7 | -6.54 ± 5 | -2.55 ± 4.7 | -10.2 ± 1.8
11 | CC(C)c1ccccc1S(=O)(=O)c1cc(N)c2ncccc2c1[N+](=O)[O-] | -29.5 ± 16 | -43.5 ± 30 | -8.28 ± 2.7 | -18.9 ± 11

Complete entries, quoted from the list. Order of values: robust z score of cell number ([1]; siRNA: siRpgrip1l) | robust z score of cell number ([1]; siRNA: siScr) | robust z score of cilia incidence [2] | robust z score of cilia incidence [3]
`CC1(C(=O)O)NCCc2cc(O)c(O)cc21` (centres undefined) [Salsolinol-1-carboxylic acid] in the list: -8.46 ± 6.3 | -8.57 ± 16 | 0.698 ± 1.9 | -10.2 ± 2.4
`CC1(C)C(=O)NC2=C1C(=O)C(=O)c1ccccc12` in the list: -40.8 ± 26 | -54 ± 28 | -30.9 ± 16 | -56.2 ± 8
